Laboratory results from the supplement of paper PMC3334620.
The full ranking holds about 33,000 sequences; the median of “E-score (-0.5 to 0.5)” is about -0.015, and the highest 2% start at about 0.3. The list shows a part of the results.

Target: T1, Abf1 (UniProt P14164)
T1 sequence: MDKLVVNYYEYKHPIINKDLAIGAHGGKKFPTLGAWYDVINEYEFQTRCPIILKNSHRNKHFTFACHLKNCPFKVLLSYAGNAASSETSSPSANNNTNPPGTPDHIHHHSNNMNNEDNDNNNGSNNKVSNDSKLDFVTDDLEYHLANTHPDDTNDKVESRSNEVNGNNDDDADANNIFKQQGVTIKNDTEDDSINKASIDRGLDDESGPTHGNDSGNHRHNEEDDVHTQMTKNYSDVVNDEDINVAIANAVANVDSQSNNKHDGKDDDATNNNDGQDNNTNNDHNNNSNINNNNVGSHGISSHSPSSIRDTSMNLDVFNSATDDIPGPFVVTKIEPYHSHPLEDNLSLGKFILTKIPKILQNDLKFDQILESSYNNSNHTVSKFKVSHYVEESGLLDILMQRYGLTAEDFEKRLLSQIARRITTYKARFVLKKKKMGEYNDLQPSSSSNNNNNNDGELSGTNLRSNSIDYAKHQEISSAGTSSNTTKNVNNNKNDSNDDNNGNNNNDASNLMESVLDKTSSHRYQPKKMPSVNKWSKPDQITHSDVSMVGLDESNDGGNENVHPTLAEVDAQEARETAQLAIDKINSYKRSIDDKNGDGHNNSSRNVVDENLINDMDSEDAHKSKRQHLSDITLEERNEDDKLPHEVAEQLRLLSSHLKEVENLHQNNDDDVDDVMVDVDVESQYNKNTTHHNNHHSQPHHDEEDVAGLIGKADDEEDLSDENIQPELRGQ
Test: PBM E-score (8-mer binding enrichment) (E-score (-0.5 to 0.5)); higher = stronger / more preferred TF binding
Conditions: protein concentration: 200 nM; construct: GST-full length
Method in brief: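 Using PURExpress in vitro transcription/translation, GST-tagged yeast transcription factors were made in full-length or DNA-binding-domain form. These were applied at about 100-200 nM to double-stranded universal all-10-mer Agilent arrays, and bound protein was detected with fluorescent anti-GST. Scans were normalised with masliner before the Universal PBM Analysis Suite assigned E-scores to ungapped eight-base words pooled with their reverse complements.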

Sequence	PBM E-score
ATACGACG	0.341
TGTGCACA	0.0303
GCTGCGAC	0.00577
GCAAGTTA	0.0664
CCCGTTGC	-0.104
CGCTCTTA	0.0213
CTGACCCA	-0.152
GCGGCACC	-0.107
CAACAGGA	-0.192
AATAACAG	0.0417
AGGAACCC	-0.249
ACCGCACT	-0.0404
CCTATTTA	-0.0117
ACCTCGCT	-0.0122
AGTCGAAG	-0.187
ATACCCGC	-0.115
CTACGGGA	0.127
CTTAAGGA	-0.0142
ATGCTCTC	-0.159
ACGTGGCG	0.0289
GTTCGAAC	0.21
ATCGAAAG	0.0492

Sequence	PBM E-score
GGTGCACA	-0.05
AAGACAGA	0.00785
AAACATTT	0.0327
AGGTGCGG	-0.189
TATATAGA	0.0514
ACCGGAAT	-0.0838
CAAATGAG	-0.0746
GAACGGAA	0.0732
GATAGAGA	0.0831
CGTTAGAC	0.161
ATTCGCAC	-0.0126
AGGCCGCG	-0.145
CAAACTCG	-0.109
AGTATGAG	0.0175
AATGGTTG	-0.0278
CGGATGCC	0.0886
AATATTGG	0.0158
AAAACGAA	0.167
AGCCCGTC	-0.0082
CACATATA	-0.0348
TGAAGTCA	0.0804
CATTGATA	0.151

Sequence	PBM E-score
ACAGACGT	-0.0318
GCCACCCC	-0.16
CATGAACA	0.0948
AATTCTCC	-0.102
GCCTATTA	-0.113
CACGACAG	0.211
CCCTGGAC	0.0237
CAGTATAA	0.0392
AAACAGTC	-0.136
GCCTAGAC	-0.11
GATACTCC	0.102
AGCGAATC	-0.0504
ACATTGCC	0.115
CGGGAGAG	-0.201
CGAGTCGA	0.00432
TCGTTTCA	0.293
CTTGACGA	0.149
GATACCAA	0.148
CAAAAAAG	0.137
ACGTGGTA	0.148
AAAGTATG	0.0323
CATCGCGC	0.0864

A section from further up, as a working copy:
Sequence	PBM E-score
CCTATTTA	-0.0117
ACCTCGCT	-0.0122
AGTCGAAG	-0.187
ATACCCGC	-0.115

Next part

Sequence	PBM E-score
CTCGCAAC	0.128
GCCTACGC	-0.0487
AATAATAG	-0.0144
TCTGCTAA	-0.0111
CCCACGCA	0.0232
ATTAATCC	-0.0669
AGTTAATG	0.155
ACGTGGTC	0.155
CTTGCTAC	-0.0171
ACTGGATA	0.122
ATGTAGGG	-0.256
AACCCCGT	0.0712
ACACTTAA	-0.0289
TAGAGATA	0.136
CCGACGTC	0.139
ACTGATAA	0.126
CTGGGCAC	-0.0891
CATACTAA	0.105
CTATTCTC	-0.0913
ACTCCTCT	-0.146
